Some of the results follow. Small differences around the control level are noise.
What follows are targets tested with CN[C@@H]1C[C@H]2O[C@@](C)([C@@H]1OC)n1c3ccccc3c3c4c(c5c6ccccc6n2c5c31)C(=O)NC4 [staurosporine] (assay: log2 fold change of tryptic peptide abundance, ligand vs vehicle (limited proteolysis) (log2 ratio); higher = more trypsin-susceptible (destabilized)). Details: ligand concentration: 20 uM; sample: mouse liver crude lysate; replicate design: treated separately.

By UniProt entry, the sequences of proteins in these tests, tags left out. Where a name states a change or a piece, a line headed by the entry shows the natural chain unless it says otherwise.
UniProt Q8BGC1: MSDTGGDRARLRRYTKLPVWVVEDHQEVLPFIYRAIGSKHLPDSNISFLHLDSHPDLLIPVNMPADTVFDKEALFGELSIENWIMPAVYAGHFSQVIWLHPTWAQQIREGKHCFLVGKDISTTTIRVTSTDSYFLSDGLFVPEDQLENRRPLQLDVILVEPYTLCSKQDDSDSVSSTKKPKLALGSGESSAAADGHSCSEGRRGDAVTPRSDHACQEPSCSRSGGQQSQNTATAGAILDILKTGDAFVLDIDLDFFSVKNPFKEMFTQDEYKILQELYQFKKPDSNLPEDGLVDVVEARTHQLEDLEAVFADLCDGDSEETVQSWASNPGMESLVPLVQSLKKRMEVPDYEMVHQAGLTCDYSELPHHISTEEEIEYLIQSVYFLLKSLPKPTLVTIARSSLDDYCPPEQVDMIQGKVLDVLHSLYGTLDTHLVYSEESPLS
UniProt Q8BGS1: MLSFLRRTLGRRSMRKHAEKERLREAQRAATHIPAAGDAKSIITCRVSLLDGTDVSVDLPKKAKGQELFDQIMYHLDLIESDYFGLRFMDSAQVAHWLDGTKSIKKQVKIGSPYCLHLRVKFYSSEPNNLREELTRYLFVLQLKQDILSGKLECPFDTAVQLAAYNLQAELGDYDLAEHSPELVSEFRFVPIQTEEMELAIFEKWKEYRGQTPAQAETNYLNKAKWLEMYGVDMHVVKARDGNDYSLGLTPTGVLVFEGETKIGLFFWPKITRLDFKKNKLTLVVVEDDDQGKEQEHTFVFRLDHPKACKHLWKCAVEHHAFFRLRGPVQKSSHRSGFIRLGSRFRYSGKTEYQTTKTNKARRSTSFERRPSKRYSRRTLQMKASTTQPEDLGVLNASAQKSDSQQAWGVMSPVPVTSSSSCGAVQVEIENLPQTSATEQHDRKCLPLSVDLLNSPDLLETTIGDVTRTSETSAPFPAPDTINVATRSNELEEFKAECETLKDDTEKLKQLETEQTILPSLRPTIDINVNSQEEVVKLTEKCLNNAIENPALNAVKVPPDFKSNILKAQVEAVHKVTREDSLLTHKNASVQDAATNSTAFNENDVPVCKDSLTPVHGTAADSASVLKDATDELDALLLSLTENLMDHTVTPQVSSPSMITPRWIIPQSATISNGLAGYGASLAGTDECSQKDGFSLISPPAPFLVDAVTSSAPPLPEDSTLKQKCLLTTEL
UniProt Q8BH95: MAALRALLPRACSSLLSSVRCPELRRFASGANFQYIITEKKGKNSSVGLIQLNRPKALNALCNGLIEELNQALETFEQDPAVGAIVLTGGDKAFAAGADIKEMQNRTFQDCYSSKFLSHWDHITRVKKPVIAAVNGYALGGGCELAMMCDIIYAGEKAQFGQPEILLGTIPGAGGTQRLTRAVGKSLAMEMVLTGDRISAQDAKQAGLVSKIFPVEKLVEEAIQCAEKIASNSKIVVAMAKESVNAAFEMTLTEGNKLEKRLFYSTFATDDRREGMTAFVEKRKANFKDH
UniProt Q8BGR2: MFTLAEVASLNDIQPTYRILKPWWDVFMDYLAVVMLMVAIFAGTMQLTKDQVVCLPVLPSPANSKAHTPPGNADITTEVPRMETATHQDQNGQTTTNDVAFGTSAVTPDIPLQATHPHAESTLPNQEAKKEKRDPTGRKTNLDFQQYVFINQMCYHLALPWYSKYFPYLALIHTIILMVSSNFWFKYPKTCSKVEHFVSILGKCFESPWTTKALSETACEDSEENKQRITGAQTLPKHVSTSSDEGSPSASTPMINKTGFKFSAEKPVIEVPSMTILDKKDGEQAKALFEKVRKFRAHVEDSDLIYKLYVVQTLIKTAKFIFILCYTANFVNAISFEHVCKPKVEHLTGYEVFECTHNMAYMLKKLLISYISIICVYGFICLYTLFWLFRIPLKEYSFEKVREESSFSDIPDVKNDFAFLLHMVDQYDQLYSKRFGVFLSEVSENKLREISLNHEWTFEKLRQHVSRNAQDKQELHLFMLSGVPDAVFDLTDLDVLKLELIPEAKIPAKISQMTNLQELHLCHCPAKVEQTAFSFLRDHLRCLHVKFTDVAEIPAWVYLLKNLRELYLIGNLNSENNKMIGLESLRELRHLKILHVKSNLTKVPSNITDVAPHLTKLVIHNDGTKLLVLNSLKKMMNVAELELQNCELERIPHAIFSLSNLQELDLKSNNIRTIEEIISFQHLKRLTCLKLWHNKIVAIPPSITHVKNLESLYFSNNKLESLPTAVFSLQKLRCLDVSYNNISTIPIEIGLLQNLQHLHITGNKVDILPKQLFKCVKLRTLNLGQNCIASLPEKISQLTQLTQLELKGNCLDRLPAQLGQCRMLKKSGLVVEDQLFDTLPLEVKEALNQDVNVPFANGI
UniProt Q80Y14: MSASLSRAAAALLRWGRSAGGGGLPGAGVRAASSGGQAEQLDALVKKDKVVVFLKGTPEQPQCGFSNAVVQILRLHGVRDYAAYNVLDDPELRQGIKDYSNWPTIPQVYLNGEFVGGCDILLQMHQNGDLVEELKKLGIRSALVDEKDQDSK
UniProt Q8BGD6: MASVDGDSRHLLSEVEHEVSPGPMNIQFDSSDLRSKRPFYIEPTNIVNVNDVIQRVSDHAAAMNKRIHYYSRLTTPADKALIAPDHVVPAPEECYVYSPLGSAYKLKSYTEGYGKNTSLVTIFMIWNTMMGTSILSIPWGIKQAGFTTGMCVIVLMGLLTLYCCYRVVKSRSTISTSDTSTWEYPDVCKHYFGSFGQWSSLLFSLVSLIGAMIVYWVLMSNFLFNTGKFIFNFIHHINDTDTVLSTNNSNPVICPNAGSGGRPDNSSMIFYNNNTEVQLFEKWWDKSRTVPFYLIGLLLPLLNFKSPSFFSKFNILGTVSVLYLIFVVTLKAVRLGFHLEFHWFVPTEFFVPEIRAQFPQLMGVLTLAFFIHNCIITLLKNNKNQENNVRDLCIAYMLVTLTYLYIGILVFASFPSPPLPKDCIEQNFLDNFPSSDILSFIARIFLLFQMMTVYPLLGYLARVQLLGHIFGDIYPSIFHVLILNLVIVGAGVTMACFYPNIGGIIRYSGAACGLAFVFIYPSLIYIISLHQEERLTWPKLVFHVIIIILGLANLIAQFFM
UniProt Q80WJ7: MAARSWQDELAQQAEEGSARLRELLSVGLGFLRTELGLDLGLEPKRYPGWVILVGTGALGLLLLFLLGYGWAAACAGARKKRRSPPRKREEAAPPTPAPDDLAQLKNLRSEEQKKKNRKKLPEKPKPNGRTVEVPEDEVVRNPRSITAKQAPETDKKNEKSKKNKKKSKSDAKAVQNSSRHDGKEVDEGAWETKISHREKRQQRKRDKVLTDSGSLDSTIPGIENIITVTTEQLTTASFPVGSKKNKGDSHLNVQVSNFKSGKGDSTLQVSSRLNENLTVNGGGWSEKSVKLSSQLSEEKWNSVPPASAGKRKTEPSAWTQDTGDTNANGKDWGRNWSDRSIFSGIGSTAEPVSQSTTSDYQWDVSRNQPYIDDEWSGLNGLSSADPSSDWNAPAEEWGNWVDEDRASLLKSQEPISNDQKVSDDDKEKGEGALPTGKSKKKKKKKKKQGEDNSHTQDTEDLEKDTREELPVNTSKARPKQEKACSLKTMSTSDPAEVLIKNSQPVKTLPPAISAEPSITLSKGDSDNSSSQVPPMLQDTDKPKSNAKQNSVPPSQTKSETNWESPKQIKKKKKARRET
UniProt Q80W54: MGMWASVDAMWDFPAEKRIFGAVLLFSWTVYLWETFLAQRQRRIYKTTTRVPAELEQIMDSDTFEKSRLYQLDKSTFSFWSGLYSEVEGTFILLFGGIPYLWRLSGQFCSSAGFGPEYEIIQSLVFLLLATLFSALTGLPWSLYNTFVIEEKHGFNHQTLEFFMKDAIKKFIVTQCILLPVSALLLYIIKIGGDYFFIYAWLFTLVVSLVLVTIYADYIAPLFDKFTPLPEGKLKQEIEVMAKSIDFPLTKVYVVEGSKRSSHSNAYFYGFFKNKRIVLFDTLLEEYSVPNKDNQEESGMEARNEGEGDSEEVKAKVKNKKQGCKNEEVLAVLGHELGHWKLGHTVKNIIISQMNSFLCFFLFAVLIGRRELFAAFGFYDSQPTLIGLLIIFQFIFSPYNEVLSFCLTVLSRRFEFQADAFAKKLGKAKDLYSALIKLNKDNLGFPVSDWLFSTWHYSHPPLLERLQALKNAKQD
UniProt Q8BGC0: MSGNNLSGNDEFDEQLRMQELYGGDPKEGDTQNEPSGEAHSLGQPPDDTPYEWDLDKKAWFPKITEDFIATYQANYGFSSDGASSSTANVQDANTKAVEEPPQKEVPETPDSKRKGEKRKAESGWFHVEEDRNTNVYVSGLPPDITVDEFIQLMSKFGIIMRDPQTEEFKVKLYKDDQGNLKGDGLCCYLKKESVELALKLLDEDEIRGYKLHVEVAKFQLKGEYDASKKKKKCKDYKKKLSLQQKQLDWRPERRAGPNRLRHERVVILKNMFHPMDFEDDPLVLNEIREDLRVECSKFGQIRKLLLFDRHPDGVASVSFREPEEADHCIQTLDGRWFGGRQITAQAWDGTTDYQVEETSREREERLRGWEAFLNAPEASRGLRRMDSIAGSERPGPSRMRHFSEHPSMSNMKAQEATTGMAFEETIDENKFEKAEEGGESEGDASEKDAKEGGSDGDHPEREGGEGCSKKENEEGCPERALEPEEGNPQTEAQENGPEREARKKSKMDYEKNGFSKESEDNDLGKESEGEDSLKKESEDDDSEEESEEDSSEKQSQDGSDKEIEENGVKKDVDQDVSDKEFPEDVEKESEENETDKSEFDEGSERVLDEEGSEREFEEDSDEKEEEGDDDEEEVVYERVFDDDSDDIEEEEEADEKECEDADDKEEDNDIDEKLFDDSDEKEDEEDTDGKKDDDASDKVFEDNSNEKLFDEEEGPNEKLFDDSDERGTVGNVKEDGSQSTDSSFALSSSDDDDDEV
UniProt Q80VV3: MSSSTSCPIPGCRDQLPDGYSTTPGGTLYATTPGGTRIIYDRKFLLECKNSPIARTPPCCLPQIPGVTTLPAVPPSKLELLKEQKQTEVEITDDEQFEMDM
UniProt Q8BH15, whole entry: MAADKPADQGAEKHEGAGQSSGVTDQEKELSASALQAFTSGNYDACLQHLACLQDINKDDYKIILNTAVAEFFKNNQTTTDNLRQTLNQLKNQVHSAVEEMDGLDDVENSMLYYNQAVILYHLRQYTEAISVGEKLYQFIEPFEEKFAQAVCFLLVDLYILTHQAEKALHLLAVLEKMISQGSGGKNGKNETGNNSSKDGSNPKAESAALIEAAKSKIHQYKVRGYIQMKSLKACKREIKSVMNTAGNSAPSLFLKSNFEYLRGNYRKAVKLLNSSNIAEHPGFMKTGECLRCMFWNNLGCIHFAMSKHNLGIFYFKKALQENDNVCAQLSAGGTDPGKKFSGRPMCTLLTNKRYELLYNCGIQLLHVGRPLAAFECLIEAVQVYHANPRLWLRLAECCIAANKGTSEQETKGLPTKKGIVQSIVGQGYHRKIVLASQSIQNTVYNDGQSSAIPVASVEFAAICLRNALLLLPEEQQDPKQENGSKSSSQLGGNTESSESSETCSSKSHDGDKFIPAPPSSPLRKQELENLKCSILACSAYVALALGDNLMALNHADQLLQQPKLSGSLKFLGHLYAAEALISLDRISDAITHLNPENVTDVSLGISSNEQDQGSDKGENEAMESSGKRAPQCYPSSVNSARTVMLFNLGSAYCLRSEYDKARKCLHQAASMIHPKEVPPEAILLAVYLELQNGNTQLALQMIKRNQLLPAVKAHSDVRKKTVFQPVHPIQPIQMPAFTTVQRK
UniProt Q8BGD8: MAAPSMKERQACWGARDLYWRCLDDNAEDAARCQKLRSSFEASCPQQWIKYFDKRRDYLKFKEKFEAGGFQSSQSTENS
UniProt Q80WS3: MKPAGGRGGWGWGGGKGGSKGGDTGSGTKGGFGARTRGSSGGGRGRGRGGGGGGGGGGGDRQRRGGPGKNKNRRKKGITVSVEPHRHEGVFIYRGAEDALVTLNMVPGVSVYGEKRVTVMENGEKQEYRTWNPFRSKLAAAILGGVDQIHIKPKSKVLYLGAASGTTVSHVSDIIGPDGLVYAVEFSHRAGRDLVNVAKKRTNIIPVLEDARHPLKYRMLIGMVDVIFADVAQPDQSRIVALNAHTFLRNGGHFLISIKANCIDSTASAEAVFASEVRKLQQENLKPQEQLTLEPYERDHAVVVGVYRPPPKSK
UniProt Q80W22: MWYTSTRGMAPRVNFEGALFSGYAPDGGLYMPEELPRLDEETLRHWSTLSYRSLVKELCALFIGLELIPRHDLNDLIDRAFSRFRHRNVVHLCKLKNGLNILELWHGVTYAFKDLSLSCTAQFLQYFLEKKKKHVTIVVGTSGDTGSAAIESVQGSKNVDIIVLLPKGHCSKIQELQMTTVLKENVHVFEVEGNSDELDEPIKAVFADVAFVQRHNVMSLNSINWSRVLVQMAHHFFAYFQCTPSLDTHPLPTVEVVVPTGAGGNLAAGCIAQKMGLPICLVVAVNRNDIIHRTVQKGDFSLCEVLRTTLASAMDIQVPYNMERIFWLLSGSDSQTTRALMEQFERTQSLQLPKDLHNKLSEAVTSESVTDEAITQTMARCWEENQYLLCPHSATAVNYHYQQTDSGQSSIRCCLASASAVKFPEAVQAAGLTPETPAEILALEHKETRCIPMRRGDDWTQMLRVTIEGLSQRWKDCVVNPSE

Target | log2 fold change
UniProt Q8BG94 (peptide sequence: GRLHCTQDPVPEAVR, peptide start residue: 2) | -0.526
UniProt Q8BHN3 (peptide sequence: DAVHYGGWEHR, peptide start residue: 559) | -0.596
UniProt Q8BGC1 (peptide sequence: ILQELYQFK, peptide start residue: 273) | -0.107
UniProt Q80Y84 (peptide sequence: ALIEESEMK, peptide start residue: 781) | -0.247
UniProt Q812E0 (peptide sequence: FVQLQHGDIDKR, peptide start residue: 435) | -0.48
UniProt Q8BGS1 (peptide sequence: FMDSAQVAHWLDGTK, peptide start residue: 88) | -0.287
UniProt Q8BHD1 (peptide sequence: LHFEASPHLLDIYPR, peptide start residue: 316) | -0.229
UniProt Q8BHJ5 (peptide sequence: DKLAQQHAAAAAAAAAATNQQGSAK, peptide start residue: 101) | -0.123
UniProt Q8BH95 (peptide sequence: AFAAGADIK, peptide start residue: 93) | -0.477
UniProt Q8BFW4 (peptide sequence: KQALGQVLNEK, peptide start residue: 209) | 0.493
UniProt Q80Z37 (peptide sequence: KYYYYER, peptide start residue: 759) | -0.209
UniProt Q8BGR2 (peptide sequence: HVSTSSDEGSPSASTPMINK, peptide start residue: 238) | -0.444
UniProt Q80Y14 (peptide sequence: DKVVVFLK, peptide start residue: 48) | 0.0236
UniProt Q80ZU0 (peptide sequence: ISVTREELYK, peptide start residue: 99) | -0.215
UniProt Q8BGD6 (peptide sequence: VSDHAAAMNKR, peptide start residue: 56) | -0.248
UniProt Q8BGX0 (peptide sequence: FTIWDVGGK, peptide start residue: 450) | -0.0308

Quoted from the listing.
log2 fold change with UniProt Q80Y14 (peptide sequence: DKVVVFLK, peptide start residue: 48) is entered as 0.0236
log2 fold change with UniProt Q812E0 (peptide sequence: FVQLQHGDIDKR, peptide start residue: 435) is entered as -0.48

Carrying on:

Target | log2 fold change
UniProt Q80WJ7 (peptide sequence: KTEPSAWTQDTGDTNANGKDWGR, peptide start residue: 313) | -0.282
UniProt Q80W54 (peptide sequence: SIDFPLTK, peptide start residue: 244) | -0.359
UniProt Q80XK6 (peptide sequence: IQMELNR, peptide start residue: 366) | -0.251
UniProt Q8BGC0 (peptide sequence: EGGSDGDHPER, peptide start residue: 452) | -0.357
UniProt Q80VV3 (peptide sequence: KFLLECK, peptide start residue: 43) | 0.364
UniProt Q80W49 (peptide sequence: SYVEFSEPTTSSLQHGR, peptide start residue: 229) | -0.339
UniProt Q8BH15 (peptide sequence: GIVQSIVGQGYHR, peptide start residue: 419) | -0.405
UniProt Q8BGD8 (peptide sequence: ERQACWGAR, peptide start residue: 8) | 0.15
UniProt Q80YX1 (peptide sequence: NGREDFYR, peptide start residue: 1940) | 0.127
UniProt Q80WS3 (peptide sequence: KRTNIIPVLEDAR, peptide start residue: 200) | -0.0844
UniProt Q811F1 (peptide sequence: AADLAFLEK, peptide start residue: 850) | 0.0264
UniProt Q811B5 (peptide sequence: DSPQMMEDK, peptide start residue: 149) | 0.136
UniProt Q8BFV2 (peptide sequence: DGASCAELVSFK, peptide start residue: 21) | 0.303
UniProt Q8BHS6 (peptide sequence: LNSSVQLAGLR, peptide start residue: 216) | -0.177
UniProt Q80W22 (peptide sequence: MGLPICLVVAVNRNDIIHR, peptide start residue: 275) | 0.464

Source: the supplement of paper PMC12819154, “High-throughput peptide-centric local stability assay extends protein–ligand identification to membrane proteins, tissues and bacteria” (Nature Structural & Molecular Biology, 2025)
